{"source": "PubChem BioAssay AID504744 (Drosophila RNAi Screening Center, 2011)", "assay": "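Identify dsRNAs that increase or decrease phospho-dAkt after insulin treatment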 (primary screen)", "cells": "Drosophila Kc167 cells", "reagents": "long dsRNA against Drosophila genes, 250 ng dsRNA per well of a 384-well plate", "duration": "3 days of knock-down, then overnight serum-free starvation before stimulation", "conditions": "bovine insulin at 387 nM for 10 minutes after 12 h without serum", "read-out": "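In-cell antibody fluorescence for phospho-dAkt in each well over DNA-dye signal, with log2 residuals expressed as z-scores adjusted for cell count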", "active means": "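Under insulin, a gene counts as a hit if the average z-score of two replicates lies above 2.5 or below -2.5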", "note": "The deposit covers about 23,000 reagents; shown is a random part of those that have a named target and a result. Over the whole deposit, 98 (0.43%) got an active call. 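Only hit calls are given; the phospho-dAkt signals, z-scores and hit direction were not deposited.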 The numbers tell different reagents against one gene apart. Names joined by + are all predicted targets of the reagent."}
{"gene knocked down": "CG13991", "dsRNA no.": 1, "outcome": "inactive"}
{"gene knocked down": "Fbxo42 (F-box protein 42)", "dsRNA no.": 1, "outcome": "inactive"}
{"gene knocked down": "CG31279", "dsRNA no.": 1, "outcome": "inactive"}
{"gene knocked down": "spab (space blanket)", "dsRNA no.": 1, "outcome": "inactive"}
{"gene knocked down": "daw (dawdle)", "dsRNA no.": 1, "outcome": "inactive"}
{"gene knocked down": "CG31245", "dsRNA no.": 1, "outcome": "inactive"}
{"gene knocked down": "CG31959 (retired record)", "dsRNA no.": 1, "outcome": "inactive"}
{"gene knocked down": "Acp53C14b (Accessory gland protein 53C14b)", "dsRNA no.": 1, "outcome": "inactive"}
{"gene knocked down": "CG5611", "dsRNA no.": 1, "outcome": "inactive"}
{"gene knocked down": "BCL7-like", "dsRNA no.": 1, "outcome": "inactive"}
{"gene knocked down": "CG14011", "dsRNA no.": 1, "outcome": "inactive"}
{"gene knocked down": "Uba5 (Ubiquitin-like activating enzyme 5)", "dsRNA no.": 1, "outcome": "inactive"}
{"gene knocked down": "Cyp309a1 (Cytochrome P450 309a1)", "dsRNA no.": 1, "outcome": "inactive"}
{"gene knocked down": "CG12020", "dsRNA no.": 1, "outcome": "inactive"}
{"gene knocked down": "CG7011 + Prp31", "dsRNA no.": 1, "outcome": "inactive"}
{"gene knocked down": "CG15035", "dsRNA no.": 1, "outcome": "inactive"}
{"gene knocked down": "CG18530", "dsRNA no.": 1, "outcome": "inactive"}
{"gene knocked down": "CG18766", "dsRNA no.": 1, "outcome": "inactive"}
{"gene knocked down": "CG5577", "dsRNA no.": 1, "outcome": "inactive"}
{"gene knocked down": "koi (klaroid)", "dsRNA no.": 1, "outcome": "inactive"}
{"gene knocked down": "CG11597", "dsRNA no.": 1, "outcome": "inactive"}
{"gene knocked down": "CG31997", "dsRNA no.": 1, "outcome": "inactive"}
{"gene knocked down": "Dis3", "dsRNA no.": 1, "outcome": "inactive"}
{"gene knocked down": "Atg4b (Autophagy-related 4b)", "dsRNA no.": 1, "outcome": "inactive"}
{"gene knocked down": "NijC (Ninjurin C)", "dsRNA no.": 1, "outcome": "inactive"}
{"gene knocked down": "CG3631", "dsRNA no.": 1, "outcome": "inactive"}

Reformatted: results already given.
gene knocked down,dsRNA no.,outcome
spab (space blanket),1,inactive
daw (dawdle),1,inactive
CG31245,1,inactive
CG31959 (retired record),1,inactive
Acp53C14b (Accessory gland protein 53C14b),1,inactive
CG5611,1,inactive
BCL7-like,1,inactive
CG14011,1,inactive

More entries:
{"gene knocked down": "Rcd7 (Reduction in Cnn dots 7)", "dsRNA no.": 1, "outcome": "inactive"}
{"gene knocked down": "dmt (dalmatian)", "dsRNA no.": 1, "outcome": "inactive"}
{"gene knocked down": "wit (wishful thinking)", "dsRNA no.": 1, "outcome": "inactive"}
{"gene knocked down": "Tet (Ten-Eleven Translocation (TET) family protein)", "dsRNA no.": 1, "outcome": "inactive"}
{"gene knocked down": "AttA (Attacin-A)", "dsRNA no.": 1, "outcome": "inactive"}
{"gene knocked down": "CG9992", "dsRNA no.": 1, "outcome": "inactive"}
{"gene knocked down": "CG9992", "dsRNA no.": 2, "outcome": "inactive"}
{"gene knocked down": "Prosbeta2R1 (Proteasome beta2 subunit-related 1)", "dsRNA no.": 1, "outcome": "inactive"}
{"gene knocked down": "sba (six-banded)", "dsRNA no.": 1, "outcome": "inactive"}
{"gene knocked down": "sba (six-banded)", "dsRNA no.": 2, "outcome": "inactive"}
{"gene knocked down": "tey (teyrha-meyrha)", "dsRNA no.": 1, "outcome": "inactive"}
{"gene knocked down": "tey (teyrha-meyrha)", "dsRNA no.": 2, "outcome": "inactive"}
{"gene knocked down": "Atg8a (Autophagy-related 8a)", "dsRNA no.": 1, "outcome": "inactive"}
{"gene knocked down": "CG14005", "dsRNA no.": 1, "outcome": "inactive"}
{"gene knocked down": "fs(1)Ya (female sterile (1) Young arrest)", "dsRNA no.": 1, "outcome": "inactive"}
{"gene knocked down": "BoYb", "dsRNA no.": 1, "outcome": "inactive"}
{"gene knocked down": "JhI-26 (Juvenile hormone-inducible protein 26)", "dsRNA no.": 1, "outcome": "inactive"}
{"gene knocked down": "ppk7 (pickpocket 7)", "dsRNA no.": 1, "outcome": "inactive"}
{"gene knocked down": "CG6356", "dsRNA no.": 1, "outcome": "inactive"}
{"gene knocked down": "CG3746", "dsRNA no.": 1, "outcome": "inactive"}
{"gene knocked down": "Zasp67 (Z band alternatively spliced PDZ-motif protein 67)", "dsRNA no.": 1, "outcome": "inactive"}
{"gene knocked down": "bon (bonus)", "dsRNA no.": 1, "outcome": "inactive"}
{"gene knocked down": "CG32625", "dsRNA no.": 1, "outcome": "inactive"}
{"gene knocked down": "PGAP3 (Post-GPI attachment to proteins 3)", "dsRNA no.": 1, "outcome": "inactive"}
{"gene knocked down": "CG14950 (retired record)", "dsRNA no.": 1, "outcome": "inactive"}
{"gene knocked down": "Mtpalpha (Mitochondrial trifunctional protein alpha subunit)", "dsRNA no.": 1, "outcome": "inactive"}
{"gene knocked down": "CG13138", "dsRNA no.": 1, "outcome": "inactive"}
{"gene knocked down": "BomS2 (Bomanin Short 2)", "dsRNA no.": 1, "outcome": "inactive"}
{"gene knocked down": "CG14306 (retired record)", "dsRNA no.": 1, "outcome": "inactive"}
{"gene knocked down": "CG11131", "dsRNA no.": 1, "outcome": "inactive"}
{"gene knocked down": "CG11131", "dsRNA no.": 2, "outcome": "inactive"}
